Here are results for 65 molecules from the supplement of paper PMC8104966.

This is one part of the list. This data set is noisy: repeats of one test often differ as much as different tests do.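 U2OS cells expressing ACE2 were combined with U2OS cells expressing full-length spike, and imaging quantified fusion as the fraction of nuclei displaying both cell types' fluorescent markers. Non-toxic compounds with a fusion z-score under -3, i.e., over three standard deviations below the plate's DMSO wells, are called inhibitory hits.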

The assay deals with U2OS ACE2 x SARS-CoV-2 spike co-culture. In words: cell-cell fusion (fraction fused) z-score vs plate DMSO control; higher = more fusion. The settings on record: 30 µM; 5 h; toxicity class: non-toxic, passed QC.
As to `CCc1cc2c(cc1CC)CC(NC[C@H](O)c1ccc(O)c3[nH]c(=O)ccc13)C2` [Indacaterol], the “cell-cell fusion (z-score)” value was active: -7.96.

In the case of `C[C@]12CCC3c4ccc(OS(=O)(=O)[O-])cc4CCC3C1CC[C@H]2O.[Na+]` (stereo not given in full), the “cell-cell fusion (z-score)” value was inactive: 3.17. As to `CC(C)(O)[C@@H]1CC[C@](C)([C@H]2[C@@H](O)C[C@@]3(C)C4C[C@H](O[C@@H]5O[C@H](CO)[C@@H](O)[C@H](O)[C@H]5O)C5C(C)(C)[C@@H](O[C@@H]6OC[C@@H](O)[C@H](O)[C@H]6O)CC[C@@]56C[C@@]46CC[C@]23C)O1` (stereo not given in full), the “cell-cell fusion (z-score)” value was inactive: 1.84. Turning to `CO[C@H]1C[C@@H]2CC[C@@H](C)[C@@](O)(O2)C(=O)C(=O)N2CCCC[C@H]2C(=O)O[C@H]([C@H](C)C[C@@H]2CC[C@@H](OCCO)[C@H](OC)C2)CC(=O)[C@H](C)/C=C(\C)[C@@H](O)[C@@H](OC)C(=O)[C@H](C)C[C@H](C)/C=C/C=C/C=C/1C` [Everolimus], the “cell-cell fusion (z-score)” value was active: -10.2.

Turning to `CC(=O)OCC(=O)[C@@]1(O)CCC2C3CC[C@@H]4C[C@H](O)CC[C@]4(C)C3C(=O)C[C@@]21C` (stereo not given in full), the “cell-cell fusion (z-score)” value is inactive: 3.31. As to `CNCCCC12CCC(c3ccccc31)c1ccccc12.Cl`, the “cell-cell fusion (z-score)” value was inactive: -1.43.

On to `CC(=O)O.CC1/C=C/C=C/C=C/C=C/C=C/C=C/C=C/C(O[C@@H]2O[C@H](C)[C@H](O)[C@@H](O)[C@@H]2N)CC(O)C(C(=O)O)C(O)CC(=O)CC(O)CC(O)CC(O)CC(=O)CCCC(=O)CC(=O)OC1C(C)CC(C)C(O)CC(=O)c1ccc(N)cc1` (stereo not given in full), for which the “cell-cell fusion (z-score)” value was inactive: 2.12.

Turning to `CN1CC(O)C(O)C(O)C1CO` (stereo not given) [N-Methyl-1-deoxynojirimycin], the “cell-cell fusion (z-score)” value was inactive: 1.89.

In the case of `O=C1NCN(c2ccccc2)C12CCN(CCCC(c1ccc(F)cc1)c1ccc(F)cc1)CC2` [Fluspirilene], the “cell-cell fusion (z-score)” value is inactive: 1.97. Under `Oc1ccc([C@H]2Oc3cc(O)cc(O)c3C[C@H]2O)cc1` stands inactive: 2.4; under `CN(C)C(=O)/N=N/C(=O)N(C)C` [N,N,N',N'-Tetramethylazodicarboxamide], inactive: 1.91.

Regarding `CC1(C)C[C@@H]2C(=O)CC[C@H]3O[C@]3(C)CC[C@H]21`, the “cell-cell fusion (z-score)” value was inactive: 1.66. For `CCCCC1C(=O)N(c2ccccc2)N(c2ccccc2)C1=O` [Phenylbutazone] the value was inactive: 4.55.

Regarding `CCCCC1C(=O)N(c2ccccc2)N(c2ccccc2)C1=O`, the “cell-cell fusion (z-score)” value was inactive: 2.82. Under `CC1(C)S[C@@H]2[C@H](NC(=O)[C@H](N)c3ccc(O)cc3)C(=O)N2[C@H]1C(=O)O.O.O.O` [Amoxicillin trihydrate] stands inactive: 3. For `CC(C)C[C@H](NC(=O)[C@@H](O)[C@H](N)Cc1ccccc1)C(=O)O` [Ubenimex (Bestatin)] the value was inactive: 1.36. For `CC(O)(P(=O)([O-])O)P(=O)([O-])O.[Na+].[Na+]` the value was inactive: 1.5; for `Clc1ccc2c(c1)C(N1CCNCC1)=Nc1ccccc1O2` [Amoxapine], inactive: 1.89.

`Clc1ccc2c(c1)C(N1CCNCC1)=Nc1ccccc1O2`: the “cell-cell fusion (z-score)” value was inactive: -0.228. Under `CN(C)C(=O)[C@H](O)[C@H](Cc1ccccc1)NC(=O)c1cc2cc(Cl)ccc2[nH]1` stands inactive: -1.09; under `N=C(N)N.O=C(O)O`, inactive: 4.64. In the case of `CCCC(=O)Nc1ncnc2c1ncn2C1O[C@@H]2COP(=O)(O)O[C@H]2[C@H]1OC(=O)CCC` (stereo not given in full), the “cell-cell fusion (z-score)” value is inactive: 1.48. Under `Cc1cc(C(C#N)c2ccc(Cl)cc2)c(Cl)cc1NC(=O)c1cc(I)cc(I)c1O` (stereo not given) stands inactive: 2.05; under `COc1ccc2c(c1)c(CC(=O)O)c(C)n2C(=O)c1ccc(Cl)cc1`, inactive: 1.7; under `COc1ccc2c(c1)c(CC(=O)O)c(C)n2C(=O)c1ccc(Cl)cc1` [Indomethacin], inactive: 2.97.

With `Cn1cnc2c(F)c(Nc3ccc(Br)cc3Cl)c(C(=O)NOCCO)cc21` [AZD6244 (Selumetinib)], the “cell-cell fusion (z-score)” value was inactive: 0.995.

In the case of `Cc1ccc(N(CC2=NCCN2)c2cccc(O)c2)cc1.Cl`, the “cell-cell fusion (z-score)” value is inactive: 1.68. Under `CC(=O)Nc1ccc(C(=O)O)cc1` stands inactive: 0.733; under `CCOC(=O)[C@H](CCc1ccccc1)N[C@@H](C)C(=O)N1CCC[C@H]1C(=O)O.O=C(O)/C=C\C(=O)O` [Enalapril Maleate], inactive: 2.78.

With `C[N+]1(C)C2CC(OC(=O)[C@H](CO)c3ccccc3)CC1C1OC12.[Br-]` (single isomer, unassigned; (-)) [(-)-Scopolamine methyl bromide], the “cell-cell fusion (z-score)” value is inactive: -2.73. For `CC(C)=CC1C(C(=O)OCc2cccc(Oc3ccccc3)c2)C1(C)C` (stereo not given) the value was inactive: 2.44; for `CCCCCOc1ccc(-c2cc(-c3ccc(C(=O)N[C@H]4C[C@@H](O)[C@@H](O)NC(=O)[C@@H]5[C@@H](O)[C@@H](C)CN5C(=O)[C@H]([C@H](O)CC(N)=O)NC(=O)[C@H]([C@H](O)[C@@H](O)c5ccc(O)c(OS(=O)(=O)[O-])c5)NC(=O)[C@@H]5C[C@@H](O)CN5C(=O)[C@H]([C@@H](C)O)NC4=O)cc3)no2)cc1.[Na+]` [Micafungin sodium], active: -11.3; for `CC[C@H]1CN2CCC1C[C@@H]2[C@@H](O)c1ccnc2ccc(OC)cc12` (stereo not given in full), inactive: 1.81. For `C[C@]12CCC(=O)C=C1CCC1C2[C@@H](O)C[C@@]2(C)C1CC[C@]2(O)C(=O)COC(=O)CCC(=O)O` (stereo not given in full) the value was inactive: 1.2. Under `O=C1CN2Cc3c(ccc(Cl)c3Cl)NC2=N1` [Anagrelide] stands inactive: 2.82; under `O=C(CCCl)NCc1ccccc1`, inactive: 1.66; under `COC(=O)C[C@H]1C(C)(C)[C@@H](OC(C)=O)[C@@H]2CC3=C4CC(=O)O[C@@H](c5ccoc5)[C@]4(C)CCC3[C@@]1(C)C2=O` (stereo not given in full), inactive: 2.45.

Take `O=C(O)CCCc1ccc(N(CCCl)CCCl)cc1`: the “cell-cell fusion (z-score)” value is inactive: 1.02. As to `COC(=O)C1=CO[C@@H](O)[C@@H]2C(CO)=CC[C@H]12` [Genipin], the “cell-cell fusion (z-score)” value was inactive: 3.7.

On to `CC(C)Cn1cnc2c(N)nc3ccccc3c21.Cl`, for which the “cell-cell fusion (z-score)” value was inactive: 1.71. Under `COc1ccc(-c2coc3cc(OC(C)=O)cc(OC(C)=O)c3c2=O)cc1` stands inactive: 1.99; under `NCC(CC(=O)O)c1ccc(Cl)cc1` (stereo not given) [Baclofen], inactive: 2.66; under `O=C(O)CCCC[C@@H]1CCSS1` (racemic) [(±)-alpha-Lipoic Acid], inactive: 1.58. Under `Cc1onc(-c2c(Cl)cccc2Cl)c1C(=O)N[C@@H]1C(=O)N2[C@@H]1SC(C)(C)[C@@H]2C(=O)[O-].[Na+]` stands inactive: 2.57. Under `CN(C)CC[C@H](CSc1ccccc1)Nc1ccc(S(=O)(=O)NC(=O)c2ccc(N3CCN(Cc4ccccc4-c4ccc(Cl)cc4)CC3)cc2)cc1[N+](=O)[O-]` stands inactive: 1.84; under `CCOC(=O)CC(SP(=S)(OC)OC)C(=O)OCC` (stereo not given), inactive: 3.27.

In the case of `CC(=O)Oc1ccc(Cl)c2cccnc12`, the “cell-cell fusion (z-score)” value is inactive: 0.493. Under `CCn1cc(C(=O)O)c(=O)c2ccc(C)nc21` [Nalidixic acid] stands inactive: 2.17; under `CC(=O)N[C@@H](Cc1c[nH]c2ccccc12)C(=O)O`, inactive: 1.82; under `Cc1cc(O)c(C)c(O)c1C(=O)O`, inactive: 1.69. On to `COc1ccc(CN(CCN(C)C)c2ccccn2)cc1.O=C(O)/C=C\C(=O)O` [Pyrilamine maleate], for which the “cell-cell fusion (z-score)” value is inactive: 2.24. Under `CC1(C)S[C@@H]2[C@H](NC(=O)C(C(=O)[O-])c3ccccc3)C(=O)N2[C@H]1C(=O)[O-].[Na+].[Na+]` (stereo not given in full) [Carbenicillin disodium] stands inactive: 2.78.

Take `OC(c1ccccc1)(c1ccccc1)C12CC[N+](CCOCc3ccccc3)(CC1)CC2.[Br-]` [Umeclidinium bromide]: the “cell-cell fusion (z-score)” value is inactive: 0.631. In the case of `CNC(=O)c1cc(Oc2ccc(NC(=O)Nc3cc(C(C)(C)C)nn3-c3ccc4ncccc4c3)c(F)c2)ccn1` [DCC-2036 (Rebastinib)], the “cell-cell fusion (z-score)” value was inactive: 1.64. As to `CC(=O)Nc1c(I)c(NC(C)=O)c(I)c(C(=O)O)c1I`, the “cell-cell fusion (z-score)” value was inactive: 0.458. For `Cl.O=C(COc1ccc(Cl)cc1)N1CCN(Cc2ccc3c(c2)OCO3)CC1` the value was inactive: 0.58; for `Br.CN1CCC[C@@H]1Cc1c[nH]c2ccc(CCS(=O)(=O)c3ccccc3)cc12` [Eletriptan hydrobromide], inactive: -1.14. Under `COc1ccccc1Oc1c(NS(=O)(=O)c2ccc(C(C)(C)C)cc2)nc(-c2ncccn2)nc1OCCO` [Bosentan] stands inactive: 2.3; under `C[C@H]1O[C@@H](O[C@H]2[C@@H](O)C[C@H](O[C@H]3[C@@H](O)C[C@H](O[C@H]4CC[C@]5(C)C6C[C@@H](O)[C@]7(C)[C@@H](C8=CC(=O)OC8)CC[C@]7(O)C6CC[C@@H]5C4)O[C@@H]3C)O[C@@H]2C)C[C@H](O)[C@@H]1O` (stereo not given in full), inactive: -1.29; under `NC(=O)c1cc(N2CC2)c([N+](=O)[O-])cc1[N+](=O)[O-]`, inactive: 0.735. Take `NC/C=C/C(=O)O` [(E)-4-amino-2-butenoic acid]: the “cell-cell fusion (z-score)” value is inactive: -0.301. For `Nc1nc(NC2CC2)c2ncn([C@H]3C=C[C@@H](CO)C3)c2n1` [Abacavir] the value was inactive: 1.9; for `Cc1c(Cl)cccc1Nc1ccccc1C(=O)O`, inactive: -0.585. `CCCNC(=O)NS(=O)(=O)c1ccc(Cl)cc1` [Chlorpropamide]: the “cell-cell fusion (z-score)” value was inactive: 1.88. On to `COc1cc2c(CCNC(C)=O)c[nH]c2cc1O` [6-Hydroxymelatonin], for which the “cell-cell fusion (z-score)” value was inactive: 2.04.
